# This is one part of the list. These are further read-outs of the screen, such as a control signal, another cell line or another target. No call is given for them. The list favours compounds with an active or inconclusive main result. The note in brackets gives the kind of curve behind each potency; many fits are weak.
# Experiment: qHTS Assay to Find Inhibitors of Chronic Active B-Cell Receptor Signaling
# Settings: ABC-DLBCL IkBa-CBG/CBR reporter, luminescence ratio (green luciferase fused to IkBa over red control in TMD8 lymphoma cells), 4 h
# Outline: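 Doxycycline induced both beetle luciferases in TMD8 lymphoma cells; IKK-driven degradation limits the IkappaBalpha-fused green signal, while red luminescence normalises for cell number and nonspecific effects. Compounds tested up to 46 uM, 4 hrs.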
# [1] = measured here: CBR red luminescence, cell number
# [2] = measured here: IkBa-CBG green luminescence
SMILES,AC50 [1],AC50 [2]
CCc1nc2ccccc2c(C(=O)OCC(=O)Nc2cccc(S(=O)(=O)N3CCOCC3)c2)c1C,"11.2 µM [falling, partial curve, poor fit]","15.8 µM [rising, partial curve, poor fit]"
COc1ccccc1C(=O)NCCn1cc(SCC(=O)Nc2cc(C)on2)c2ccccc21,"29.1 µM [falling, single point]",
Nc1cccc2nc3ccccc3cc12,"2.31 µM [falling, single point]","8.91 µM [rising, partial curve, poor fit]"
CC(C)OC(=O)c1cccnc1SCc1cc(=O)n2ccccc2n1,"35.5 µM [falling, single point]",
COc1ccc(Cc2nnc(NS(=O)(=O)c3ccc(NC(C)=O)cc3)s2)cc1,"35.5 µM [falling, single point]",
CC1(C)C=Cc2c(ccc3c2OC[C@H](c2ccc(O)cc2O)C3)O1,"20.6 µM [rising, partial curve]",
O=C(COC(=O)c1ccc(-c2nnc(-c3ccccc3)o2)cc1)c1ccccc1,"1.03 µM [rising, full curve, poor fit]",
CCOc1ccc(S(=O)(=O)N2CCC(C(=O)N3CCN(c4ccccc4)CC3)CC2)cc1,"35.5 µM [falling, single point]",
Cc1ccc(CNC(=O)c2cc3c(C)nc4ccccc4c3o2)cc1,"29.1 µM [falling, single point]",
CC(C)SCCCCOc1ccc2ccccc2c1,"8.91 µM [rising, partial curve]",
Cc1cc(C)c(S(=O)(=O)N2CCN=C2c2ccccc2)cc1C,"20.6 µM [rising, partial curve, poor fit]",
CC(Sc1cccc[n+]1[O-])C(=O)Nc1ccc(Oc2ccccc2)cc1 (stereo not drawn),"1.41 µM [rising, partial curve, poor fit]",
CC12c3ccccc3C(c3ccccc31)C1C(=O)N(c3ccncc3)C(=O)C12 (stereo not drawn),,"14.1 µM [rising, partial curve, poor fit]"
O=C(NC(=S)Nc1cc([N+](=O)[O-])ccc1O)c1cccnc1,"8.91 µM [falling, partial curve]",
Cc1c(/C=N/NC(=O)C(NC(=O)c2ccc3c(c2)OCO3)C(C)C)c2ccccc2n1C (stereo not drawn),"29.1 µM [falling, single point]",
S=C(Nc1ccc2nc(-c3ccccn3)c(-c3ccccn3)nc2c1)N1CCOCC1,"35.5 µM [rising, single point]",
Cc1noc(C)c1COC(=O)c1cc(S(=O)(=O)N2CCOCC2)ccc1F,"23.1 µM [rising, partial curve, poor fit]",
Cc1nc(-c2ccccc2)sc1C(=O)CSc1ccccc1,"9.2 µM [rising, partial curve]","1.16 µM [rising, full curve, poor fit]"
COc1ccc(C2C(O)C(c3c[nH]c4ccccc34)=NN2C(=O)CCl)cc1 (stereo not drawn),"10 µM [falling, partial curve]",
CNC(=S)N/N=C/c1ccccc1Cl,"18.4 µM [rising, partial curve, poor fit]",
O=C(Nc1ncc2c(n1)-c1ccccc1CC2)C1CC1,"20 µM [falling, partial curve, poor fit]",

# Full records, quoted from the list:
# CC12c3ccccc3C(c3ccccc31)C1C(=O)N(c3ccncc3)C(=O)C12 (stereo not drawn) as listed: AC50 [2]: 14.1 µM [rising, partial curve, poor fit]
# CCc1nc2ccccc2c(C(=O)OCC(=O)Nc2cccc(S(=O)(=O)N3CCOCC3)c2)c1C as listed: AC50 [1]: 11.2 µM [falling, partial curve, poor fit]; AC50 [2]: 15.8 µM [rising, partial curve, poor fit]

# Following part:

SMILES,AC50 [1],AC50 [2]
COc1cc([N+](=O)[O-])c2nccnc2c1,"35.5 µM [rising, single point]",
Cc1ccc(-n2cccc2/C=C2\C(=N)N3N=C(C(C)C)SC3=NC2=O)cc1,"1.78 µM [rising, full curve, poor fit]",
Cc1cc(=O)n2c(n1)NC(Nc1cccc(C)c1C)=NC2c1ccc(F)cc1 (stereo not drawn),"11.2 µM [falling, partial curve, poor fit]",
CCOc1ccc(NC(=O)c2cccnc2SC)cc1,"20 µM [falling, partial curve]",
Cc1cccc(NC(=S)NNC(=O)CCn2cc(C)cn2)c1,"7.08 µM [rising, full curve]","7.08 µM [falling, partial curve]"
O=C(c1ccccc1)n1ccc2ccccc21,"5.01 µM [rising, single point]",
COc1cc(SC)ccc1C(=O)NCCOc1ccccc1Cl,"3.55 µM [rising, single point]",
CC(=O)N1CCN(C(=O)c2cc(=O)c3ccccc3o2)CC1,"14.1 µM [falling, partial curve, poor fit]",
CCOc1ccccc1NC(=O)COn1nnc2ccccc21,"2.06 µM [falling, full curve, poor fit]",
COc1ccc(OC)c(/C=N/N(C)c2ccccc2)c1,"4.11 µM [rising, single point]",
Cc1nc(C)c(-c2csc(Nc3cccc(O)c3)n2)s1,"1.26 µM [rising, full curve, poor fit]",
COc1ccc(CNC(=O)Cc2ccc(NC(=O)C3=C(C)OCCS3)cc2)cc1,,"11.2 µM [falling, partial curve, poor fit]"
O=C(NCc1ccc2c(c1)OCO2)c1cc([N+](=O)[O-])ccc1N1CCCCC1,,"16.4 µM [falling, partial curve, poor fit]"
Fc1ccc(-n2nnc(-c3nccs3)n2)cc1,"35.5 µM [falling, single point]",
COCCn1ccc2c(OCC(=O)Nc3cccc(OC)c3)cccc2c1=O,"10 µM [falling, partial curve, poor fit]",
Cc1ccc(Cl)cc1N1CCN(C(=O)COc2ccc(S(=O)(=O)NC(C)C)cc2)CC1,"8.2 µM [falling, partial curve, poor fit]",
O=C(Nc1ccc(Cl)cc1)N1CCN(c2ncccn2)CC1,"14.1 µM [falling, partial curve, poor fit]",
Cc1nc2ccccc2n1CC(=O)NN,"22.4 µM [rising, partial curve, poor fit]",
O=C1CCc2cc(S(=O)(=O)NC(Cc3ccccc3)C(=O)NC3CCCCC3)ccc2N1 (stereo not drawn),"32.6 µM [falling, single point]",
Cc1c(O)ccc2c3c(c(=O)oc12)CCC(C)C3 (stereo not drawn),"6.31 µM [rising, partial curve, poor fit]",
CC(=O)c1ccc(S(=O)(=O)Nc2cccc(-c3ccc4nncn4n3)c2)cc1,"15.8 µM [rising, single point]",

# Quoted at random: two entries already listed
SMILES,AC50 [1],AC50 [2]
Cc1nc(C)c(-c2csc(Nc3cccc(O)c3)n2)s1,"1.26 µM [rising, full curve, poor fit]",
COc1ccc(CNC(=O)Cc2ccc(NC(=O)C3=C(C)OCCS3)cc2)cc1,,"11.2 µM [falling, partial curve, poor fit]"

# Further records follow.

SMILES,AC50 [1],AC50 [2]
COc1ccc(NC(=O)C2Cc3cccc(OC)c3O/C2=N\O)cc1 (stereo not drawn),"8.91 µM [falling, partial curve]",
N/C(=N\OC(=O)c1cccc(Br)c1)c1ccncc1,"1.41 µM [rising, partial curve, poor fit]",
C/C(CC(=O)Nc1ccc2c(c1)OCCO2)=N\NC(=O)c1ccccc1Cl,"10 µM [falling, partial curve, poor fit]",
COc1ccc(-c2cc(C(=O)Nc3cccnc3)c3ccccc3n2)cc1OC,"35.5 µM [falling, single point]",
CCN1CCN(CC(=O)N2N=C(c3cccs3)CC2c2ccc(F)cc2)C(=O)C1=O (stereo not drawn),"8.91 µM [rising, partial curve, poor fit]",
CCCNc1nc(C)nc2c1cnn2CCc1ccccc1,"18.4 µM [falling, single point]",
O=C(CC1SC(=O)NC1=O)Oc1ccc(/C=N/NC(=O)c2ccccc2O)cc1 (stereo not drawn),"3.55 µM [falling, partial curve]",
CC(=O)c1sc(-c2ccccc2)cc1NS(=O)(=O)c1ccccc1,"7.08 µM [rising, partial curve, poor fit]",
O=C(COC(=O)Cc1cccc2ccccc12)Nc1ccccc1-c1ccccc1,"29.1 µM [falling, single point]",
CCOc1cccc2cc(-c3nc4ccc(C(=O)O)cc4[nH]3)c(=O)oc12,"0.0411 µM [falling, full curve]",
COc1ccc([N+](=O)[O-])cc1NS(=O)(=O)c1cc(C(=O)O)ccc1OC,"14.1 µM [falling, partial curve, poor fit]",
CCc1ccc(NS(=O)(=O)c2ccc3[nH]cc(C(=O)NCC4CCCO4)c(=O)c3c2)cc1 (stereo not drawn),"0.794 µM [rising, full curve, poor fit]",
Clc1ccc(-c2cc(C3CCNCC3)[nH]n2)c(Cl)c1,"35.5 µM [falling, single point]",
O=[N+]([O-])c1ccc(O)c(C(C#Cc2ccccc2)N2CCOCC2)c1 (stereo not drawn),"15.8 µM [falling, single point]",
Cc1ccc(SCc2nc(-c3ccccc3)no2)cc1,"0.0731 µM [rising, full curve, poor fit]",
Cc1cc(S(=O)(=O)Nc2ccc3cn[nH]c3c2)c(C)cc1Cl,"3.16 µM [falling, partial curve, poor fit]",
NS(=O)(=O)c1ccc(NNC(=O)c2ccc(F)cc2F)cc1,"0.112 µM [falling, full curve, poor fit]",
O=C(NC(=S)NNC(=O)c1cccs1)c1ccc(Br)o1,"13 µM [falling, partial curve, poor fit]",
O=C(Nc1ccc(Cn2nnc3ccccc32)cc1)c1ccco1,"11.2 µM [rising, partial curve, poor fit]",
OC(C#Cc1ccccn1)c1cccs1 (stereo not drawn),"6.31 µM [falling, full curve]","0.631 µM [falling, partial curve, poor fit]"
O=C(Nc1ccccc1O)c1c(O)c2c([nH]c1=O)CCCC2,"14.1 µM [falling, partial curve]",

# Reference: PubChem BioAssay AID493014 (National Center for Advancing Translational Sciences (NCATS), 2011)
